According to the supplement of paper PMC4604168 (melanoma cell lines):
Some of the results follow. Many values rest on one well or one pass, so single values are uncertain.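 Cells were imaged in 1,536-well plates, and nuclei stained with an antibody against cleaved PARP were counted against all DNA-stained nuclei to give the apoptosis fraction. Screening doses were chosen to leave most cells alive, and resting and induced cleaved-PARP levels differ strongly between cell lines.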

What follows are compounds tested on LOXIMVI (assay: cleaved PARP positive nuclei fraction relative to DMSO control; melanoma cells; higher = more apoptosis). Settings: library dose: low library concentration; 72 h.

SMILES | cleaved PARP positive nuclei fraction
CC[C@]1(O)C[C@H]2CN(CCc3c([nH]c4ccccc34)[C@@](C(=O)OC)(c3cc4c(cc3OC)N(C=O)[C@H]3[C@@](O)(C(=O)OC)[C@H](OC(C)=O)[C@]5(CC)C=CCN6CC[C@]43[C@@H]65)C2)C1 [vincristine] + CO[C@H]1C[C@@H]2CC[C@@H](C)[C@@](O)(O2)C(=O)C(=O)N2CCCC[C@H]2C(=O)O[C@H]([C@H](C)C[C@@H]2CC[C@@H](OCCO)[C@H](OC)C2)CC(=O)[C@H](C)/C=C(\C)[C@@H](O)[C@@H](OC)C(=O)[C@H](C)C[C@H](C)/C=C/C=C/C=C/1C [everolimus] (first compound 0.0001 µM, partner dose 0.02 µM) | 168%
COc1cc([C@@H]2c3cc4c(cc3[C@@H](O[C@@H]3O[C@@H]5CO[C@@H](C)O[C@H]5[C@H](O)[C@H]3O)[C@H]3COC(=O)[C@H]23)OCO4)cc(OC)c1O [etoposide] + CC1(C)CCC(c2ccc(Cl)cc2)=C(CN2CCN(c3ccc(C(=O)NS(=O)(=O)c4ccc(N[C@H](CCN5CCOCC5)CSc5ccccc5)c(S(=O)(=O)C(F)(F)F)c4)cc3)CC2)C1 [ABT263] (first compound 0.02 µM, partner dose 0.4 µM) | 195%
CC[C@]1(O)C[C@H]2CN(CCc3c([nH]c4ccccc34)[C@@](C(=O)OC)(c3cc4c(cc3OC)N(C=O)[C@H]3[C@@](O)(C(=O)OC)[C@H](OC(C)=O)[C@]5(CC)C=CCN6CC[C@]43[C@@H]65)C2)C1 [vincristine] + NC(=O)c1ccc(N(C(N)=O)c2c(F)cccc2F)nc1-c1ccc(F)cc1F [VX702] (first compound 0.0001 µM, partner dose 0.4 µM) | 31.7%
Cc1ccc(Nc2nccc(N(C)c3ccc4c(C)n(C)nc4c3)n2)cc1S(N)(=O)=O [Pazopanib] + C=CCNC1=C2C[C@@H](C)C[C@H](OC)[C@H](O)[C@@H](C)/C=C(\C)[C@H](OC(N)=O)[C@@H](OC)/C=C\C=C(/C)C(=O)NC(=CC1=O)C2=O [Tanespimycin] (first compound 0.4 µM, partner dose 0.002 µM) | 94.6%
O=C(Nc1cc(C(F)(F)F)cc(C(F)(F)F)c1)c1cc(Cl)ccc1O + Cn1c(=O)n(-c2ccc(C(C)(C)C#N)cc2)c2c3cc(-c4cnc5ccccc5c4)ccc3ncc21 [NVP-BEZ235] (first compound 0.016 µM, partner dose 0.004 µM) | 152%
Cc1cn(-c2cc(NC(=O)c3ccc(C)c(Nc4nccc(-c5cccnc5)n4)c3)cc(C(F)(F)F)c2)cn1 [nilotinib] + Cc1nc(Nc2ncc(C(=O)Nc3c(C)cccc3Cl)s2)cc(N2CCN(CCO)CC2)n1 [dasatanib] (first compound 0.2 µM, partner dose 0.004 µM) | 71.6%
Cc1cc(Nc2cc(N3CCN(C)CC3)nc(Sc3ccc(NC(=O)C4CC4)cc3)n2)n[nH]1 [Tozasertib] + O=C(O)c1ccc2c(c1)nc(Nc1cccc(Cl)c1)c1ccncc12 [CX4945] (first compound 0.006 µM, partner dose 0.4 µM) | 113%
O=C(Nc1cc(C(F)(F)F)cc(C(F)(F)F)c1)c1cc(Cl)ccc1O + CO[C@H]1C[C@@H]2CC[C@@H](C)[C@@](O)(O2)C(=O)C(=O)N2CCCC[C@H]2C(=O)O[C@H]([C@H](C)C[C@@H]2CC[C@@H](OCCO)[C@H](OC)C2)CC(=O)[C@H](C)/C=C(\C)[C@@H](O)[C@@H](OC)C(=O)[C@H](C)C[C@H](C)/C=C/C=C/C=C/1C [everolimus] (first compound 0.016 µM, partner dose 0.02 µM) | 97.8%
Cc1cc(Nc2cc(N3CCN(C)CC3)nc(Sc3ccc(NC(=O)C4CC4)cc3)n2)n[nH]1 [Tozasertib] + Nc1cccc2c1CN(C1CCC(=O)NC1=O)C2=O [lenalidomide] (first compound 0.006 µM, partner dose 1 µM) | 126%
O=C(Nc1cc(C(F)(F)F)cc(C(F)(F)F)c1)c1cc(Cl)ccc1O + Cn1nnc2c(C(N)=O)ncn2c1=O [temozolomide] (first compound 0.016 µM, partner dose 2 µM) | 41.2%
COc1cc([C@@H]2c3cc4c(cc3[C@@H](O[C@@H]3O[C@@H]5CO[C@@H](C)O[C@H]5[C@H](O)[C@H]3O)[C@H]3COC(=O)[C@H]23)OCO4)cc(OC)c1O [etoposide] + Cn1sc(=O)n(Cc2ccccc2)c1=O [TDZD-8] (first compound 0.02 µM, partner dose 0.4 µM) | 17.5%
